Laboratory results taken from patent US20200397913A1 (GENMAB A/S, priority 2015, published 2020).

B1: IgG1-AXL-726: human IgG1,κ anti-AXL antibody, VH SEQ ID NO:31, VL SEQ ID NO:33; FN2 domain binding (antibody, V domains shown)
VH: QVQLQQWGAGLLKPSETLSLTCAIDGGSFSGYYWSWIRQPPGKGLEWIGEISHSGRTNYNPSLKSRVTISIDTSKNQFSLKLSSVAAADTAVYYCARFITMIRGAIITHFDYWGQGALVTVSS
VL: DIQMTQSPSSLSASVGDRVTITCRASQGISSWLAWYQQKPEKAPKSLIYAASSLQSGVPSRFSGSGSGTDFTLTISSLQPEDFATYYCQQYHSYPYTFGQGTKLEIK
modifications: homo sapiens
B2: IgG1-AXL-148: human IgG1,κ anti-AXL antibody, VH SEQ ID NO:5, VL SEQ ID NO:6; Ig2 domain binding (antibody, V domains shown)
VH: EVQLLESGGGLVQPGGSLRLSCAASGFTFSSYAMTWVRQAPGKGLEWVSAISISGGSTFYADSVKGRFTISRDNSKNTLYLQMNSLRAEDTAVYYCRGYSGYVYDAFDFWGQGTMVTVSS
VL: DIQMTQSPSSLSASVGDRVTITCRASQGISNWLAWYQQKPEKAPKSLIYAASSLQSGVPSRFSGSGSGTDFTLTISSLQPEDFATYYCQQYNSYPLTFGGGTKVEIK
modifications: homo sapiens
B3: IgG1-AXL-183: human IgG1,κ anti-AXL antibody, VH SEQ ID NO:16, VL SEQ ID NO:18; FN1 domain binding (antibody, V domains shown)
VH: QVQLQQWGAGLLKPSETLSLTCAVYGGSFSGYYWSWIRQPPGKGLEWIGEINQSGSTNYNPSLKSRVTISVDTSKNQFSLKLSSVTAADTSVYYCASGNWDHFFDYWGQGTLVTVSS
VL: DIQMTQSPSSVSASVGDRVTITCRASQGISSWLAWYQHKPGKAPKLLIYATSSLQSGVTSRFSGSGSGTDFTLTISSLQPEDFATYYCQQAKSFPWTFGQGTKVEIK
modifications: homo sapiens
B4: IgG1-AXL-733: human IgG1,κ anti-AXL antibody, VH SEQ ID NO:34, VL SEQ ID NO:35; FN1 domain binding (antibody, V domains shown)
VH: QVQLVESGGGVVQPGRSLRLSCAASGFSFSTYAMHWVRQAPGKGLEWVAVISYDGDNKYSADSVKGRFTISRDNSKNTLYLQMNSLRAEDTAVYYCARGRKLGIDAFDIWGQGTMVTVSS
VL: AIQLTQSPSSLSASVGDRVTITCRASQGISSALAWYQQKPGKAPKLLIYDASSLESGVPSRFSGSGSGTDFTLTISGLQPEDFATYYCQQFNSYPFTFGPGTKVDIK
modifications: homo sapiens

tested on: human-mouse AXL chimeras (hsAXL, hsAXL-mmECD, -mmIg1, -mmIg2, -mmFN1, -mmFN2); format: binding; settings: 1 μg/mL antibody

Molecule	AXL domain specificity
B1	Fn2
B2	Ig2
B3	Fn1
B4	Fn1
